In all, about 53,000 sequences went through this assay and about 3,700 (7%) were called active.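 How the source made its calls: active means gene knockdowns whose robust z-score for IL-1 alpha signal is at least 2 or at most -2, so actives lie on both sides; inactive means the rest.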 The list shows a part of the results.
Assay: Components of the Cytosolic LPS Sensing Pathway: Gene Identification via Genome-wide siRNA Screen
Conditions: RAW264.7 macrophages, IL-1a HTRF, actives lie on both sides, screened at 100 nM (by protocol), cells primed 5 h with Pam3CSK4 first
Source text: Non-canonical inflammasome activation by cytosolic LPS is a critical component of the host response to Gram-negative bacterial infection, however we lack a comprehensive understanding of the cellular processes that control this pathway. Here we describe a genome-wide siRNA screen to identify genes regulating the mouse macrophage IL-1 alpha response to cytosolic LPS.
RAW264.7 cells were maintained in complete DMEM media, comprising DMEM with 4.5 g/L glucose, 10% FBS (Gemini Bio-Products, West Sacramento, CA), 2 mM Glutamine (Lonza) and 20 mM HEPES (Lonza), hereafter complete DMEM.
The RNAi screen was conducted in 384-well format using the Ambion Silencer Mouse Genome siRNA Library (#4391425), which consists of three unique, nonoverlapping, nonpooled siRNAs for each of 17,000 gene targets. siRNA reagents ([…]) were stamped into 384-well white flat-bottom microplates (Corning, 3570) using a Velocity11 VPrep liquid handling system (Agilent) integrated into a BioCel robotic platform (Agilent) in columns 1-22, leaving columns 23-24 empty for negative (Ambion, Negative control #1) and positive (mouse Casp4) controls, respectively. The median value of each plate's negative control column was used to normalize sample wells, and the positive control was used to assess transfection efficiency and assay performance.
Lipofectamine RNAiMAX Transfection Reagent ([…]; Invitrogen) was added in […] serum-free, antibiotic-free media to plate wells using a Thermo Scientific Matrix WellMate and Microplate Stacker. Plates were incubated for 45 min at room temperature to allow for the sufficient formation of siRNA-lipid complexes. Cells were seeded at a density of 1x10^4 cells per well in 20 microL media containing 20% (vol/vol) FBS without antibiotics. The final concentration of siRNA in each well was 100 nM. Cells were cultured for 48h at 37 degrees C in 5% CO2 before addition of […] of TLR ligand Pam3CSK4 for 5 hours. The medium was then removed, replaced with […] growth media and cell were transfected with […] of LipidA and TransIT-TKO (Mirus) for 24 hour. At the end of the LipidA treatment, […] of supernatant was transferred to a 384 Greiner Bio-one non-binding low volume plate and […] of IL-1a HTRF reagent (Cisbio, 62MIL1APEH) was added and incubated at room temperature overnight. The plates were read on an EnVision plate reader (PerkinElmer). Cell viability was measured by adding 20ul Cell Titer Glo to the original plate and running a luminescence read on the EnVision. The quantified IL-1a signal for each siRNA gene-targeted well was divided by the median of the negative control wells and multiplied by 100 to achieve a negative control normalized value for each well/siRNA. This normalized value was then used to generate a robust z-score by first taking the log of each value and then by subtracting the median and dividing by the […].

Sequence	z-score
GCUUACCAAUUGAAAACUGTT against Terf1	inactive: -0.142
GGCAAGCUUCCAGAUCGAATT against Adam23	inactive: 0.0113
CGUUGUCAGUGUAAAUAUUTT against Osbpl6	inactive: -0.83
GGUGUUGAACCUCAUCCAGTT against Tom1	inactive: 0.491
GGCAUGGCUGGCAAAAACATT against Ppp1r15a	inactive: -1.85
GGUUUAUAGGCCUUCUUCCTT against Flot2	inactive: -0.763
GGUCUUUGGAAAAGACACUTT against Gramd3	inactive: 1.46
GGCUGUUCUACGAAGAAAATT against 4921517D22Rik	inactive: 0.231
GGGAAUUCACACUGUCUGGTT against Tmem176a	inactive: -1.73
GCUCAAAUAACUCCACCACTT against Pola1	inactive: -1.73
GGAUAAAAAGGAUAAGAGCTT against Prps1l1	inactive: -0.44
CCUACAUCCUCGCUUUUGCTT against Ptcd2	inactive: -0.106
GGAGGCCCAAUGAUUAGCATT against Ntan1	inactive: -0.151
GGCAACUUGCUCAUCAUUGTT against Olfr1356	inactive: -0.142
CCUAUACCGAGCAAACAUCTT against Crebbp	inactive: -0.869
GCUCACCACGCUAAACUGUTT against Trpm6	inactive: 1.44
CCGGCUCAUCCAUUAUUGGTT against Atp6v0b	inactive: -1.08
GGUUUUCUACAGGAGAGACTT against 9430015G10Rik	inactive: 1.33
GUAGAGGUUAUAUAGCAGATT against Ms4a6d	inactive: 0.494
GGAGGACUGCCAGAAAUACTT against Myd88	inactive: -0.0402
GGCCUCAGCAUUUAUCUGGTT against Rtca	inactive: -0.782
GCUGUAAGGAGGAACUUCUTT against Btg1	inactive: -1.03

Sequence	z-score
GGAGUAUGCGUGUUGCCAATT against 1700018B08Rik	inactive: -1.65
GGUAAAUGACAACUUUCUUTT against Slco6b1	active: 2.92
GGAGGUUCAGCAACGCAUUTT against Prss43	inactive: 0.0194
GGUGAAGCAAAACGGAGGATT against H2-M10.1	inactive: 0.512
GGACAGUUCUCUCUGCACUTT against Prss50	inactive: -0.465
GGUGUUUGUUAACUACUCGTT against Fam171b	inactive: 0.592
GGCAGUAGCAUUUAGAAGGTT against Socs3	inactive: -0.628
GGAUUUUCCUGAUGAGGUUTT against Cdk5rap1	inactive: -0.0503
GUGCAGGUCCUAAUCUGAATT against Asb1	active: 2.15
GGCUUUCAAGCUAACUGAUTT against Sf3b2	active: -2.39
GGGAAUUCCUCAGUUCAAATT against Adam7	inactive: 0.27
CCACACUGUAUAAUACAAUTT against Il20rb	inactive: 1.82
GAGGCUGUUAGAGAAAACGTT against Frat2	inactive: -0.773
GGAGGCUCAAGUCCAUCACTT against A930104D05Rik	inactive: -0.36
GGAAGUGAUUGAAAUGGUGTT against Ror1	inactive: -0.893
GGAGAAAAAACUAAAGGAGTT against Abca3	inactive: -0.0651
GGUAGAAGAGAGCUUCAACTT against Alg12	inactive: 0.411
CGUAUGCAGAACAACAUUUTT against Klhl2	inactive: 1.77
GGUCUUUUGGUUCCAGAUCTT against Ak4	inactive: 0.292
GGAAUCGUUUUUGCUUAGATT against Rsrc1	inactive: 1.31
GCAGUGUAGAACUAGGCUGTT against Taf1c	inactive: -0.154
GAAUCUAAAGAUGAACACCTT against 0610009B22Rik	inactive: 0.8

Another view of some results above:
Sequence | z-score
GUAGAGGUUAUAUAGCAGATT against Ms4a6d | inactive: 0.494
GGAGGACUGCCAGAAAUACTT against Myd88 | inactive: -0.0402
GGCCUCAGCAUUUAUCUGGTT against Rtca | inactive: -0.782
GCUGUAAGGAGGAACUUCUTT against Btg1 | inactive: -1.03
GGAGUAUGCGUGUUGCCAATT against 1700018B08Rik | inactive: -1.65
GGUAAAUGACAACUUUCUUTT against Slco6b1 | active: 2.92
GGAGGUUCAGCAACGCAUUTT against Prss43 | inactive: 0.0194
GGUGAAGCAAAACGGAGGATT against H2-M10.1 | inactive: 0.512
GGACAGUUCUCUCUGCACUTT against Prss50 | inactive: -0.465
GGUGUUUGUUAACUACUCGTT against Fam171b | inactive: 0.592
GGCAGUAGCAUUUAGAAGGTT against Socs3 | inactive: -0.628
GGAUUUUCCUGAUGAGGUUTT against Cdk5rap1 | inactive: -0.0503
GUGCAGGUCCUAAUCUGAATT against Asb1 | active: 2.15
GGCUUUCAAGCUAACUGAUTT against Sf3b2 | active: -2.39
GGGAAUUCCUCAGUUCAAATT against Adam7 | inactive: 0.27
CCACACUGUAUAAUACAAUTT against Il20rb | inactive: 1.82
GAGGCUGUUAGAGAAAACGTT against Frat2 | inactive: -0.773
GGAGGCUCAAGUCCAUCACTT against A930104D05Rik | inactive: -0.36
GGAAGUGAUUGAAAUGGUGTT against Ror1 | inactive: -0.893
GGAGAAAAAACUAAAGGAGTT against Abca3 | inactive: -0.0651
GGUAGAAGAGAGCUUCAACTT against Alg12 | inactive: 0.411
CGUAUGCAGAACAACAUUUTT against Klhl2 | inactive: 1.77

(listing goes on)

Sequence	z-score
GCAUGAGAGGUUUCAGUAUTT against Rnf150	inactive: 0.454
GCUCCUGAUCAAAUAAAGUTT against Ldhb	inactive: 0.279
GGAUAAAUGUCACAGAGCUTT against Cd200	inactive: -0.093
CGAUAUAGAAUUGUUACAGTT against Nf1	inactive: 0.922
GGAUUUCAAGACAUACAAGTT against Tsnaxip1	inactive: 0.292
GCCCGAAUACAGGAAGAUCTT against Hspg2	inactive: 1.42
GGCCAGCAGUGUUUUUCUUTT against Acvr1	inactive: -0.29
GGGAGAAUUGUAGAUUAUUTT against Myo10	inactive: 0.475
GGUAUUGAAAUGGAAAAGGTT against D6Wsu163e	inactive: -1.2
GCAGGUGGAUCUUAUAUGGTT against Cabin1	inactive: -0.405
CGUCUAUUCGUAAUGAUUUTT against Tmbim7	inactive: -1.01
CCUACAAACCUGCUUAUCCTT against Srebf2	inactive: -0.424
CGGUGUAUCAAGUAAGGUGTT against Aup1	inactive: 0.179
ACAGUGUCUGGCAUCAAACTT against Mrgpra5	inactive: 0.205
CCAUAUGCAACCGUUACUUTT against Ciz1	inactive: 0.441
GGCCCACAGUUUGUGACUGTT against Larp7	inactive: -1.1
GGAUGCCCAUCGUUAUGGUTT against Dis3l	inactive: -0.692
GGAACUGAAGGGACAGGAATT against Uchl1	inactive: -0.862
GGUGGACUCUCUCUCAGAATT against Scara3	inactive: 0.496
CCUGGUGCCUUUAUCUACCTT against Ctxn1	inactive: 0.907
CCUAAAUUCGGUUUGAAUCTT against Fat1	inactive: -0.0213
GGUGCUCUGUAUAAUUGGUTT against Gm11487	inactive: 0.178

Sequence	z-score
GGUUCCGAAUGGAGACUUGTT against Cypt3	inactive: 1.46
GGGAUUCCUGAAGCUUCUCTT against Serpinb9b	inactive: -0.151
GGUCAGUCGGUUGUUACUATT against Ttpal	inactive: -1.93
GCUCUAUAGUUAAUUAGGGTT against Rbm3	inactive: -0.0883
CGUUUGUACCUGCGGAAAATT against Olfr270	inactive: 0.76
CCACAUGACCUUACAGCCATT against Zdhhc8	inactive: -1.54
GGAGGCCAUCACACUUAGATT against 4933421I07Rik	active: -2.27
GCAGGUCUUACCAGAUCGATT against Thap3	inactive: -0.765
GGACUUUGAUCAGCUGUCUTT against Tmem17	active: -2.12
GGCUGCCUUGCUGAUUUGATT against Boc	inactive: 0.762
GGACAAGACUCUCAGUUCATT against Atpaf1	inactive: 0.77
GGUACCAAUAAUGGAUUUUTT against Ambn	inactive: 1.1
GGCCUUUUUUAAAAGAAGCTT against Esr2	inactive: -0.0947
GCGGACCUGCUGUUAUGAATT against Sema3b	inactive: 1.34
GCACCUCUCAAAGAGUUUATT against Rin2	inactive: -1.41
CCGAGCAGUAUGUGAACGUTT against Cela1	active: 3.56
GGUAUAGCAAGUUAAAAGATT against Hip1	inactive: 0.39
GGCACAGUUAUGCAAAAUATT against Cpa3	inactive: -0.854
GGAUCUGAAGCAUUUUAAATT against Nlrp10	inactive: -0.832
GGAGAUCUAUCUGGUCCAUTT against Ptrh1	inactive: -0.66
GGAUGAUGAUAACUUACAGTT against Mro	inactive: 0.777
GGCUGAAAAAUUUCAUGAUTT against Ppa2	inactive: -0.547

Sequence	z-score
GCUACACUCCAAGCAAAAUTT against Anapc10	inactive: -0.819
GGCACUGAAAAGAAAGAAGTT against Chmp4c	inactive: -1.74
GGGUUUACUGGAAAAUAAATT against Minar2	inactive: -1.27
GGGAUCAUGUAAAUUCCACTT against Pde9a	inactive: 0.924
GCAUUGUUUGGGAAUGCCCTT against Olfr1396	inactive: -0.403
CCCAUGAUGCCAUCUUUAATT against 2410002F23Rik	inactive: -1.03
GGAGGCCUUGUACUUACACTT against Rspo1	inactive: 1.26
GGUAUUUAUGAAGCACACATT against Clcn3	inactive: 0.451
GAAUCUCCAUUCUCCCAUGTT against Olfr1301	inactive: 0.43
GGUGUCUGCCAGGAGAAAUTT against Dexi	inactive: 1.11
GGUUCCUCUCAAUUCCACCTT against Cav3	inactive: -1.88
GGAGACAGAGCAUGUGGUATT against Fam13c	inactive: -1.59
GGAGGAACAGAAGAAACUCTT against Tma7	inactive: -0.0481
GGUUUGAUGUGGAAUCAUGTT against Tmem109	inactive: -0.517
GGUGCAAUCGUGUUGAGCUTT against Dap3	inactive: 1.06
GGUGGCAUUAAGGAAAUCATT against Olfr147	inactive: -0.0185
GGACUUUCCAGUAAGGAAATT against Mapk8ip1	inactive: 0.996
CGCGCAGAAUCAGAGCGAUTT against Pdcd2l	inactive: 0.109
